Reference: PubChem BioAssay AID540276 (National Center for Advancing Translational Sciences (NCATS), 2011)
Screen size: about 300,000 compounds; about 5,400 (1.8%) were called active. Inconclusive means that the source gave no clear call. Such entries were picked first, then a sample of the others. The call rests on the fitted dose curve; tested in HEK293 cells. A potency beside an inconclusive call is a rough fit, not a confirmed value.

Assay: qHTS for inhibitors of binding or entry into cells for Marburg Virus
Details: Marburg virus pseudotyped entry inhibition, cell reporter; activity change, negative = inhibition: at 37.8 µM (top of the series) unless noted
On the % scale 0 is the no-effect control and ±100 the full control effect; potency means the concentration at half of the fitted maximal effect.

| Compound | Potency | activity change, negative = inhibition |
| --- | --- | --- |
| COc1cccc(Oc2cn[nH]c2-c2ccc(O)cc2O)c1 | inconclusive: 1.03 µM [activator, partial curve, poor fit] | – |
| CCCOc1ccc(/C=N/Nc2ccccn2)cc1OC | inconclusive: 2 µM [activator, partial curve, poor fit] | – |
| CCOC(=O)C1CCN(C(=O)c2cccnc2Oc2ccccc2)CC1 | inconclusive: 3.98 µM [inhibitor, partial curve, poor fit] | – |
| CC(C)c1ccc(S(=O)(=O)NC2CCS(=O)(=O)C2)cc1 (stereo not given) | inconclusive: 2.82 µM [inhibitor, single point] | – |
| COc1ccc(-n2c(=O)c3ccc(C(=O)NCc4ccc(C)cc4)cc3n(CC(=O)Nc3cccc(F)c3)c2=O)cc1 | inconclusive: 5.62 µM [inhibitor, single point] | – |
| Cc1ccc(CNC(=O)c2cc3cc(C)ccc3n2C)cc1 | inconclusive: 1.12 µM [inhibitor, full curve, poor fit] | – |
| Cc1ccc(S(=O)(=O)CCC(=O)OCC(=O)N2CC(=O)Nc3ccccc32)cc1 | inconclusive: 2.06 µM [inhibitor, partial curve, poor fit] | – |
| COc1cccc(C(=O)Nc2nc3c(s2)CCCC3)c1 | – | inactive: -7.48% [at 46.1 µM] |
| CN(Cc1ccccc1)C(=O)C(=O)Nc1ccc2nc3n(c(=O)c2c1)CCCCC3 | – | inactive: 3.99% [at 46.1 µM] |
| COc1ccc(CN(C)C(=O)c2cccc(NC(=O)CC3SC(N4CCCCC4)=NC3=O)c2)c(OC)c1 (stereo not given) | active: 10 µM | – |
| CCOC(=O)c1ccccc1NC(=S)N1CC(C)CC(C)C1 (stereo not given) | – | inactive: 16.5% |
| Oc1ccc(C=Nc2ccccc2-c2nc3ccccc3[nH]2)c(O)c1 | – | inactive: -12.5% |
| CCCCC(=O)Nc1cccc(NC(=O)c2ccc(Br)cc2)c1 | – | inactive: -10.2% |
| CN(C)c1ccc(NC(=O)CN2C3CCCC2CC(NC(=O)c2ccccc2)C3)cc1 (stereo not given) | inconclusive: 22.4 µM [inhibitor, single point] | – |
| Cc1ccc(O/C=C2\OC(=O)c3ccccc32)cc1 | inconclusive: 6.51 µM [inhibitor, single point] | – |
| Cc1ccc(-n2ncc3c2CC(C)(C)CC3NC(=O)CCN2CCCCC2=O)cc1 (stereo not given) | inconclusive: 10 µM [inhibitor, partial curve, poor fit] | – |
| COc1ccc(CN2C(=O)N(c3cccc(C)c3)C(=O)C2CC(=O)Nc2ccc(F)cc2)cc1OC (stereo not given) | – | inactive: 6.25% [at 46.1 µM] |
| CCN(CC)C(=O)c1nn(-c2ccccc2)c2c1C1CCC2(C)C1(C)C (stereo not given) | inconclusive: 14.1 µM [inhibitor, partial curve, poor fit] | – |
| Cc1nc(N)sc1N=Nc1ccccc1C(F)(F)F | inconclusive: 1.12 µM [activator, full curve, poor fit] | – |
| Cn1nc([N+](=O)[O-])nc1S(C)(=O)=O | inconclusive: 12.6 µM [inhibitor, partial curve, poor fit] | – |
| Cc1nonc1NC(=O)CSc1nc(C2CCCCC2)nc2ccccc12 | inconclusive: 18.3 µM [inhibitor, single point] | – |
| Cc1ccc(-c2nnc(N)s2)cc1 | – | inactive: 23.6% |
| CCOc1cc(N2CCOCC2)c(OCC)cc1NC(=O)COC(=O)[C@@H]1CCCN1S(=O)(=O)c1ccccc1F | inconclusive: 35.5 µM [inhibitor, single point] | – |
| N#CCCN(Cc1ccccc1)C(=S)Nc1ccc(F)cc1 | inconclusive: 3.55 µM [inhibitor, single point] | – |

| Compound | Potency | activity change, negative = inhibition |
| --- | --- | --- |
| CC(C)CNC(=O)CC1Nc2ccccc2NC1=O (stereo not given) | inconclusive: 0.794 µM [inhibitor, single point] | – |
| Cc1cccc(Nc2nnc(SCC(=O)NCc3cccs3)s2)c1C | – | inactive: -8.39% |
| COc1ccccc1NC(=O)c1cc(-c2cc(OC)c(OC)c(OC)c2)nc2ccccc12 | active: 3.16 µM | – |
| O=C(NC1CCN(S(=O)(=O)c2ccc(F)cc2)CC1)c1cccnc1 | – | inactive: 2.6% [at 46.1 µM] |
| COc1ccc(CC(=O)NC2CCCCCC2)c(OC)c1 | – | inactive: -6.57% [at 46.1 µM] |
| Cn1cc(CN2CCN(CC(C)(C)C)C(CCO)C2)c2ccccc21 (stereo not given) | inconclusive: 17.8 µM [inhibitor, partial curve, poor fit] | – |
| Oc1ccc2c3c1O[C@H]1c4[nH]c5c(c4C[C@@]4(O)[C@@H](C2)N(CC2CC2)CC[C@]314)C[C@]1(O)[C@H]2Cc3ccc(O)c4c3[C@@]1(CCN2CC1CC1)[C@@H]5O4 | – | inactive: -27.9% |
| O=C(Nc1ccc2[nH]ncc2c1)c1ccc(F)cc1 | inconclusive: 10 µM [inhibitor, partial curve, poor fit] | – |
| CCc1cc2c3c(c1)/C(=C1/SC(N)=NC1=O)C(=O)N3C(C)(C)C=C2C | – | inactive: 0.939% |
| O=S(=O)(N/N=C\c1ccc(-c2ccccc2Cl)o1)c1ccccc1 | – | inactive: 1.03% |
| O=C1COc2cccnc2N1 | inactive | – |
| CCCC1=C(C(=O)OCC)C(c2cc(Cl)cc(OC)c2OCc2ccccc2)NC(=O)N1 (stereo not given) | inconclusive: 7.3 µM [inhibitor, partial curve, poor fit] | – |
| Cc1cccc(NC(=O)C2CCCN2S(=O)(=O)c2ccc(Cl)cc2)n1 (stereo not given) | inconclusive: 7.08 µM [inhibitor, partial curve, poor fit] | – |
| C=CCn1cc(/C=N/NC(=O)COc2cccc3cccnc23)c2ccccc21 | inconclusive: 5.62 µM [inhibitor, single point] | – |
| Cc1cc(C)cc(Nc2ncc3c(n2)CCCC3=O)c1 | inconclusive: 10 µM [inhibitor, partial curve, poor fit] | – |
| Cc1ccc(-c2nnc(Nc3ccc(C(=O)N(C)C)cc3)c3ccccc23)cc1S(=O)(=O)NCC1CCCO1 (stereo not given) | inconclusive: 2.24 µM [inhibitor, partial curve, poor fit] | – |
| COC(=O)c1ccc(NC(=O)CC2C(=O)N(c3cccc(F)c3)C(=O)N2CC(C)C)cc1 (stereo not given) | – | inactive: -17.4% [at 46.1 µM] |
| Cc1c(C(=O)NCc2ccc(F)cc2)oc2ccc(S(=O)(=O)N3CCOCC3)cc12 | inconclusive: 35.5 µM [inhibitor, single point] | – |
| CN(C(=O)COC(=O)c1ccccc1SCC(=O)N1CCCC1)C1CCS(=O)(=O)C1 (stereo not given) | – | inactive: -3.63% |
| COc1ccc2cc3cc(C(=O)NCc4cccnc4)oc3nc2c1 | – | inactive: -24.5% [at 46.1 µM] |
| CCS(=O)(=O)C(C)(CCl)C(=O)Nc1ccc(C(=O)OC)cc1 (stereo not given) | inconclusive: 0.112 µM [inhibitor, partial curve, poor fit] | – |
| COc1cc(OC)cc(C(=O)Nc2nnc(-c3cccnc3)o2)c1 | inconclusive: 6.31 µM [activator, single point] | – |
| COc1cc(/C=C(\C#N)C(=O)NC(C)C)cc(Cl)c1O | inconclusive: 8.91 µM [activator, partial curve] | – |
| N=c1sccn1CC(=O)NC(c1ccccc1)c1ccccc1 | inconclusive: 11.2 µM [inhibitor, partial curve, poor fit] | – |

| Compound | Potency | activity change, negative = inhibition |
| --- | --- | --- |
| CC(=O)Nc1cccc(C(=O)OC(C)C(=O)NC(=O)NC2CCCCC2)c1 (stereo not given) | inconclusive: 35.5 µM [inhibitor, single point] | – |
| Cc1ccc(S(=O)(=O)Nc2cccnc2)cc1 | – | inactive: -10.4% |
| CC(C)CC(=O)Nc1ccc(Nc2ccccc2)cc1 | inconclusive: 6.31 µM [activator, single point] | – |
| CCc1cc2c(=O)[nH]c(COC)nc2s1 | – | inactive: 24% |
| Cc1cc(Br)ccc1OCC(=O)NNC(=O)c1ccc(NC(=O)C2CC2)cc1 | inconclusive: 1.41 µM [activator, single point] | – |
| CC(/C=C1\SC(=S)N(NC(=O)c2ccc(O)cc2)C1=O)=C\c1ccccc1 | inconclusive: 20.6 µM [activator, single point] | – |
| Cc1ccc(-c2cc(-c3ccccc3)no2)c(O)c1 | inconclusive: 3.98 µM [inhibitor, full curve, poor fit] | – |
| c1ccc(CN2CCN(C3CCCSc4ccccc43)CC2)cc1 (stereo not given) | active: 15.8 µM | – |
| C[C@H]1[C@@H](c2ccccc2)Oc2c(Cl)cccc2S(=O)(=O)N1C | inconclusive: 0.0199 µM [activator, full curve, poor fit] | – |
| CCn1c(SCC(=O)NNC(=O)c2ccco2)nnc1-c1ccco1 | inconclusive: 5.01 µM [inhibitor, single point] | – |
| c1ccc(CN2CCN(CCOCCOc3cccc4ccccc34)CC2)cc1 | inconclusive: 35.5 µM [inhibitor, single point] | – |
| Cc1cnc(NC(=O)C2COc3ccccc3O2)s1 (stereo not given) | active: 7.94 µM | – |
| CCCN1C(=O)C(Cc2nc3ccccc3c(=O)n2-c2ccc(OC)cc2)c2cc(C)ccc21 (stereo not given) | – | inactive: -15.1% [at 46.1 µM] |
| Cc1cc(NCc2ccccn2)ccc1Br | inconclusive: 18.3 µM [activator, single point] | – |
| CCc1cccc(C)c1NC(=O)CSc1nc2c(c(=O)[nH]1)CCC2 | inconclusive: 15.8 µM [inhibitor, partial curve, poor fit] | – |
| C=CCc1cc(Cl)ccc1OCCN(C)C | inconclusive: 29.1 µM [inhibitor, single point] | – |
| CCC1CCCCN1CCCNC(=O)Cn1nc(-c2ccc(C)cc2)ccc1=O (stereo not given) | inconclusive: 7.3 µM [inhibitor, partial curve] | – |
| CCOC(=O)C1CCCN(c2c(NCCC(C)C)c(=O)c2=O)C1 (stereo not given) | – | inactive: 7.55% |
| Cc1c(NS(=O)(=O)c2cc(C(=O)NCc3ccco3)cc(Cl)c2Cl)c(=O)n(-c2ccccc2)n1C | – | inactive: -1.66% [at 46.1 µM] |
| CCCCOC(=O)Nc1nnc(CC(=O)NCc2ccccc2)s1 | inconclusive: 7.08 µM [inhibitor, full curve, poor fit] | – |
| O=C(/C=C/Nc1ccccc1C(=O)O)c1cccs1 | inconclusive: 0.282 µM [inhibitor, full curve, poor fit] | – |
| O=C(Nc1nc2c(s1)CCCC2)c1ccc(N2C(=O)CCC2=O)cc1 | – | inactive: 15.1% |

Exported as labelled records: entries from further up.
Cc1cc(Br)ccc1OCC(=O)NNC(=O)c1ccc(NC(=O)C2CC2)cc1
  Potency: inconclusive: 1.41 µM [activator, single point]
CC(/C=C1\SC(=S)N(NC(=O)c2ccc(O)cc2)C1=O)=C\c1ccccc1
  Potency: inconclusive: 20.6 µM [activator, single point]
Cc1ccc(-c2cc(-c3ccccc3)no2)c(O)c1
  Potency: inconclusive: 3.98 µM [inhibitor, full curve, poor fit]
c1ccc(CN2CCN(C3CCCSc4ccccc43)CC2)cc1 (stereo not given)
  Potency: active: 15.8 µM

Shown in CSV form: two of the compounds above.
Compound,Potency,"activity change, negative = inhibition"
CCc1cc2c(=O)[nH]c(COC)nc2s1,–,inactive: 24%
Cc1cc(Br)ccc1OCC(=O)NNC(=O)c1ccc(NC(=O)C2CC2)cc1,"inconclusive: 1.41 µM [activator, single point]",–
